Source: PMC8666665
Results are given in words; binding and its absence hold for the method and conditions named. For part of these data: In cells and extracts the contact can be indirect. Some binding calls cover weakened binding; strength is not graded here. For part of these data: Tags and fused reporters may be left off the sequences shown. Each block holds one molecule with its values, some of them ahead of it.

Sequences of proteins named here, by UniProt entry; tags and fusion partners are left off. A change or cut given only in a name is not applied to a line headed by its entry. Residues count along the entry.
UniProt Q9Y572: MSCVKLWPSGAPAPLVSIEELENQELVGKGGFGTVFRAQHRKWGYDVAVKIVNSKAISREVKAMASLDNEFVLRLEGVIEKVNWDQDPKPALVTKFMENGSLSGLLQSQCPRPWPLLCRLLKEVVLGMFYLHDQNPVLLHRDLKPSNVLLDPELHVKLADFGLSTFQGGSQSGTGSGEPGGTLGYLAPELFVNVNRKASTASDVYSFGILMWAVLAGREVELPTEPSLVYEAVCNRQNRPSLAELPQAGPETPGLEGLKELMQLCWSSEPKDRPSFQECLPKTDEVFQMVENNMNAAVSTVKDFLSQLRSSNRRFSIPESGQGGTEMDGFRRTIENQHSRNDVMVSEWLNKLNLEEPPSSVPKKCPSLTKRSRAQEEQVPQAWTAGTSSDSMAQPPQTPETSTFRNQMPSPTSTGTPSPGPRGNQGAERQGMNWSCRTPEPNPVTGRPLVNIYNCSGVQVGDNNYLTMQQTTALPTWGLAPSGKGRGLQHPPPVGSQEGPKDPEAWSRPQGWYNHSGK
UniProt P19838, residues 1-433: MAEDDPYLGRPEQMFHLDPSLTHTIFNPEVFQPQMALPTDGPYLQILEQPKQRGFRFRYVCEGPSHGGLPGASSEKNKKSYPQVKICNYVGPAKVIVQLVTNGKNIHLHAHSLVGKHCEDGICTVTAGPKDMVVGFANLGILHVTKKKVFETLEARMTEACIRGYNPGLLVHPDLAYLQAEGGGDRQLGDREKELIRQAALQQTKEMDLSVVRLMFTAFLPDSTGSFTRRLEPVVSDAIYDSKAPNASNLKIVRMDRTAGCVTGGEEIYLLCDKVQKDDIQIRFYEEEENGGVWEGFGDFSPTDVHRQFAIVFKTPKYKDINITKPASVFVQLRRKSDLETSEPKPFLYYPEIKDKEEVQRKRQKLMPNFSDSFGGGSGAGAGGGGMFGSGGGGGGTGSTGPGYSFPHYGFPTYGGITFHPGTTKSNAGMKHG
UniProt Q04206: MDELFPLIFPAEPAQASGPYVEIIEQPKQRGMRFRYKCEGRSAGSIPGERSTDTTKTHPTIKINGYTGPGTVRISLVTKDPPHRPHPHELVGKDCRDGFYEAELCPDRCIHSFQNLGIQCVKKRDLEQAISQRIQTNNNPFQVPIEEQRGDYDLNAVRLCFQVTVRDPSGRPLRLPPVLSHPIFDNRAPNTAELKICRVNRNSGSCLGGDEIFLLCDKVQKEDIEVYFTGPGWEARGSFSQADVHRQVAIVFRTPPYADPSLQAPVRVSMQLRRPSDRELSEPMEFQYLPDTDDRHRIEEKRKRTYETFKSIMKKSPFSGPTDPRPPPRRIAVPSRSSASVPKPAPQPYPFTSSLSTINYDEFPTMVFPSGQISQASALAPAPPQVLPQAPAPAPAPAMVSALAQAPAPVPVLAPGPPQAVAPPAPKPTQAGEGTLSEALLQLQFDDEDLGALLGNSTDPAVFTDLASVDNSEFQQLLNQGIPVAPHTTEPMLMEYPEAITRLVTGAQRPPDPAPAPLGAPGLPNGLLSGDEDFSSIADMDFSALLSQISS
UniProt Q13546: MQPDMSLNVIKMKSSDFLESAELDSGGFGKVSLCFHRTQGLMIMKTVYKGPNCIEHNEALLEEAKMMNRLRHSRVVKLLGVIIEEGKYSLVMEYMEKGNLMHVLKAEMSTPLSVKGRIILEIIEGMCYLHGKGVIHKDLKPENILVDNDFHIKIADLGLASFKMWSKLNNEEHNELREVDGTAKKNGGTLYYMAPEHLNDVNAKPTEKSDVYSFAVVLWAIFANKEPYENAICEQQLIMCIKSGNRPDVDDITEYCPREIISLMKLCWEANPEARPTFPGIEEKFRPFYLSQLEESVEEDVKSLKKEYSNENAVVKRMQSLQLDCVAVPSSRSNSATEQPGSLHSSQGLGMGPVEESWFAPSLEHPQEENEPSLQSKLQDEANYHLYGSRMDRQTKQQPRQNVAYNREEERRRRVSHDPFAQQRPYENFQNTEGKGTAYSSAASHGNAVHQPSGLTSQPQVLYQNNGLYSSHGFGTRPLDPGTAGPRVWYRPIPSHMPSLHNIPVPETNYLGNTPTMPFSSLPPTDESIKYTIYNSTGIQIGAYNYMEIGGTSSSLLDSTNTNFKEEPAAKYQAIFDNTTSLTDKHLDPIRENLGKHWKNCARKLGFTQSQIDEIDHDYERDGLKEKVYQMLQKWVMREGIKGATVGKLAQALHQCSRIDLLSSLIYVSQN

Assays:
GST-KPC2 = biological target: T1, GST-KPC2 (UniProt Q9BSL1); experiment: pull-down; cell-free: 100 ng of each purified GST protein mixed 1 h at room temperature in IP buffer (25 mM Hepes, 150 mM NaCl, 2 mM EDTA, 1% Triton X100), anti-V5-agarose beads 2 h at 4°C; immunoblotting; both purified
T1 sequence: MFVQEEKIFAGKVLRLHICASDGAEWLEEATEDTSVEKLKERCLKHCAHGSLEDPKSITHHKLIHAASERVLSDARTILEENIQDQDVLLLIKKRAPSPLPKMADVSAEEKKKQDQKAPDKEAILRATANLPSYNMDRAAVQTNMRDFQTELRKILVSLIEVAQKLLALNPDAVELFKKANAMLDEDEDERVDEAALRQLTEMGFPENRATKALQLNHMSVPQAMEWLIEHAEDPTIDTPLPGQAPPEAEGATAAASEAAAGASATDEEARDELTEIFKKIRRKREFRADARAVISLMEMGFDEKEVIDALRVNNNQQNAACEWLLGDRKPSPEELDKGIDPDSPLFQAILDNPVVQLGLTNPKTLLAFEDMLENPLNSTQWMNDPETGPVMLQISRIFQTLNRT

[1] = biological target: RIP3 (positive control of the PCA) (UniProt Q9Y572); experiment: split reporter; protein-fragment complementation assay: Renilla luciferase fragments F1 and F2 fused to the two proteins, co-transfected HEK/293T cells, coelenterazine-h 5 μM
[2] = biological target: p50 (NF-κB1), endogenous in nuclei of MDA-MB-231 (human (endogenous in MDA-MB-231)) (UniProt P19838); experiment: co-IP; p50 immunoprecipitated (p50 antibody, Protein A magnetic beads) from isolated nuclei of parental, CD95 k.o., KPC2 k.o. and CD95/KPC2 double k.o. MDA-MB-231 cells; p65 by immunoblotting
Flag-KPC2 = biological target: T2, Flag-KPC2 (UniProt Q9BSL1); experiment: co-IP; Flag immunoprecipitation (antibody-conjugated beads, overnight, IP buffer) from co-transfected CD95 k.o. HEK/293T cells, KPC2 co-transfected; immunoblotting
T2 sequence: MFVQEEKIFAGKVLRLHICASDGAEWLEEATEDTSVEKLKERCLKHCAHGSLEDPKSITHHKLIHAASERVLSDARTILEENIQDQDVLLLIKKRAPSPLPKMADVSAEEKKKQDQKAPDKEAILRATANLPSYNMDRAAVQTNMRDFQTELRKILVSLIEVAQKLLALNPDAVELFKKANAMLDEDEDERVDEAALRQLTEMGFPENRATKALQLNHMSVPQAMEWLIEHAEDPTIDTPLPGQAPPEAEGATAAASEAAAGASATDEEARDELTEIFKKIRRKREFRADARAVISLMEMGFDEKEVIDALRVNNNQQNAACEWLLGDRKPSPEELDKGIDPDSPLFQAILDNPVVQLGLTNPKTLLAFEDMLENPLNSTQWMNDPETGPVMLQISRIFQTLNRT

Flag-p65 = Flag-p65 (UniProt Q04206); experiment: as above
Flag-KPC1 = biological target: T3, Flag-KPC1 (UniProt Q5XPI4); experiment: as above
T3 sequence: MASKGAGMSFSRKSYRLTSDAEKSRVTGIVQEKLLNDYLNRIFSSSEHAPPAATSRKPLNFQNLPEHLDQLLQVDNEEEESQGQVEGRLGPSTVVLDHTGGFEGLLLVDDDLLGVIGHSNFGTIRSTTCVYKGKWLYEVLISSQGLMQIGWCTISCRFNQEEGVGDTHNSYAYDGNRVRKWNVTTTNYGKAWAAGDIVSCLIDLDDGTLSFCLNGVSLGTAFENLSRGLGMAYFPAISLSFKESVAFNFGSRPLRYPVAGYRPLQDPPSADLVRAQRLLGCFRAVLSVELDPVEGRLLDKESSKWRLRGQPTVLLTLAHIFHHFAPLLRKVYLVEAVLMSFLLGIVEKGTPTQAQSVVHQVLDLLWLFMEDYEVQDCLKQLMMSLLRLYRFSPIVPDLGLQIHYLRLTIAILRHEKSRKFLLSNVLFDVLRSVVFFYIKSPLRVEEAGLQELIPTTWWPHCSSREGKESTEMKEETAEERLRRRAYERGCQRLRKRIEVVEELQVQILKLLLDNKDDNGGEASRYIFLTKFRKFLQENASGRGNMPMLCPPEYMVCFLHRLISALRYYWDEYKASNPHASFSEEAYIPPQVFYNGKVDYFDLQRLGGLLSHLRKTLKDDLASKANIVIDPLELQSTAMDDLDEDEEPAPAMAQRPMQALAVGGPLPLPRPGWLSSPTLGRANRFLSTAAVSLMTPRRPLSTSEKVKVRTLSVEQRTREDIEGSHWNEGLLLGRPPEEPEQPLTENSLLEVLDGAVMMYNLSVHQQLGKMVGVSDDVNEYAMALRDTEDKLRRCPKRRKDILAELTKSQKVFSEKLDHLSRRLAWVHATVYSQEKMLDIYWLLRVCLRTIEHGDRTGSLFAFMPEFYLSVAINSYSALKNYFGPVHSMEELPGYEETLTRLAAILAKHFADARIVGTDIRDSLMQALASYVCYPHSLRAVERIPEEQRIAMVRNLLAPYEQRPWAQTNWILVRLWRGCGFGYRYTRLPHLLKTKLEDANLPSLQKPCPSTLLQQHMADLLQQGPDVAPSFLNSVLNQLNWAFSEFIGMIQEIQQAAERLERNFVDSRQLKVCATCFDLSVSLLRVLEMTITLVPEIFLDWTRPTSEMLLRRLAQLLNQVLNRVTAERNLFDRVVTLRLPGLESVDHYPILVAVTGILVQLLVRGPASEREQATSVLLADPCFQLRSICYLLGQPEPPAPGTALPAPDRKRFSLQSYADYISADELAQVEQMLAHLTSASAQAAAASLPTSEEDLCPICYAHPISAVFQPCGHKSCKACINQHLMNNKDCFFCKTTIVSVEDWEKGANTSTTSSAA

Molecule: RIP1 (positive control of the PCA) (from UniProt Q13546 1-671)
binding [1]: binds

B1: V5-KPC2 (protein, UniProt Q9BSL1 1-405)
chain: MFVQEEKIFAGKVLRLHICASDGAEWLEEATEDTSVEKLKERCLKHCAHGSLEDPKSITHHKLIHAASERVLSDARTILEENIQDQDVLLLIKKRAPSPLPKMADVSAEEKKKQDQKAPDKEAILRATANLPSYNMDRAAVQTNMRDFQTELRKILVSLIEVAQKLLALNPDAVELFKKANAMLDEDEDERVDEAALRQLTEMGFPENRATKALQLNHMSVPQAMEWLIEHAEDPTIDTPLPGQAPPEAEGATAAASEAAAGASATDEEARDELTEIFKKIRRKREFRADARAVISLMEMGFDEKEVIDALRVNNNQQNAACEWLLGDRKPSPEELDKGIDPDSPLFQAILDNPVVQLGLTNPKTLLAFEDMLENPLNSTQWMNDPETGPVMLQISRIFQTLNRT
binding (Flag-p65): binds
binding (Flag-KPC1): binds

Continued, values first:

binding (GST-KPC2): binds
Molecule: GST-p65 (1-307) (from UniProt Q04206 1-307) (domain or fragment)

binding [2]: binds
Molecule: RelA (p65), endogenous in MDA-MB-231 (from UniProt Q04206 1-551)

binding (Flag-KPC2): binds
Molecule: p65-Renilla luciferase (domain F1) (from UniProt Q04206 1-551)
